According to the supplement of paper PMC10849652:
Some of the results follow.

Protein sequences, listed by entry. Tags and fused reporters are not part of them. Lines headed by an entry give the natural chain unless they say otherwise; changes in a name come on top.
UniProt P52209: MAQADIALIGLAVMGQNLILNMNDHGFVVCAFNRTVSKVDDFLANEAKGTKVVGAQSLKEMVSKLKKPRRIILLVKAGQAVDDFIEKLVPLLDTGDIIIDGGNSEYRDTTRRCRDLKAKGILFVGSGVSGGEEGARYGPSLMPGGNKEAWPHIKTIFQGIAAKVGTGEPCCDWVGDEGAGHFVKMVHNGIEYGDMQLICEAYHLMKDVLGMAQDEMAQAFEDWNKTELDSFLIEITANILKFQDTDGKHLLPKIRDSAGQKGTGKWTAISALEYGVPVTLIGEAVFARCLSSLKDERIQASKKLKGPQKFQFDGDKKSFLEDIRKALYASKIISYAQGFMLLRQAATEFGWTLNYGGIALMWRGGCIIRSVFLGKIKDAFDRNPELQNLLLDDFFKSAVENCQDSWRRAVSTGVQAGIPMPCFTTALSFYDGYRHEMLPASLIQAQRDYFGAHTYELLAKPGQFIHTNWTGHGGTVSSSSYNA
UniProt Q9HBI1: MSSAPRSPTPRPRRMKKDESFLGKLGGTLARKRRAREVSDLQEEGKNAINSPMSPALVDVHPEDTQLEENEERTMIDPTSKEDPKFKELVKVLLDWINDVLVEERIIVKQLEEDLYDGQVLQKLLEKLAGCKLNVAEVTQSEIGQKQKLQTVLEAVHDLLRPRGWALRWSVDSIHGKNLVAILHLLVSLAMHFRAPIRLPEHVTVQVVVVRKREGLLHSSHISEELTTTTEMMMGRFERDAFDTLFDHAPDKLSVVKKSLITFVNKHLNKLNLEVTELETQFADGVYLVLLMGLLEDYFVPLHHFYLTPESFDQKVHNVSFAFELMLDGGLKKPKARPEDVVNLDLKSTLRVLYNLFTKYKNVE
UniProt Q92968: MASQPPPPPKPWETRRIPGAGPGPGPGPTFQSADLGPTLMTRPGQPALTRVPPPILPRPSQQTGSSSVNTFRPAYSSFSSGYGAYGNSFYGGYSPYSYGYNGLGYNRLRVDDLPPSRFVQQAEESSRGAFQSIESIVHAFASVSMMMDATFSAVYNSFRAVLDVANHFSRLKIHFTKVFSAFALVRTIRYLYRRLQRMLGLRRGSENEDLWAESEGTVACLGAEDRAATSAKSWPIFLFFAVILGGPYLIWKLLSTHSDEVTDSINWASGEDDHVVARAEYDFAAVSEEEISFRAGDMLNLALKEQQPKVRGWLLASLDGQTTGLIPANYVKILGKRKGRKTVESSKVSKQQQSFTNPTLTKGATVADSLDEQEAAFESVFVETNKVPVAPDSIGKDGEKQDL
UniProt Q8NCN5: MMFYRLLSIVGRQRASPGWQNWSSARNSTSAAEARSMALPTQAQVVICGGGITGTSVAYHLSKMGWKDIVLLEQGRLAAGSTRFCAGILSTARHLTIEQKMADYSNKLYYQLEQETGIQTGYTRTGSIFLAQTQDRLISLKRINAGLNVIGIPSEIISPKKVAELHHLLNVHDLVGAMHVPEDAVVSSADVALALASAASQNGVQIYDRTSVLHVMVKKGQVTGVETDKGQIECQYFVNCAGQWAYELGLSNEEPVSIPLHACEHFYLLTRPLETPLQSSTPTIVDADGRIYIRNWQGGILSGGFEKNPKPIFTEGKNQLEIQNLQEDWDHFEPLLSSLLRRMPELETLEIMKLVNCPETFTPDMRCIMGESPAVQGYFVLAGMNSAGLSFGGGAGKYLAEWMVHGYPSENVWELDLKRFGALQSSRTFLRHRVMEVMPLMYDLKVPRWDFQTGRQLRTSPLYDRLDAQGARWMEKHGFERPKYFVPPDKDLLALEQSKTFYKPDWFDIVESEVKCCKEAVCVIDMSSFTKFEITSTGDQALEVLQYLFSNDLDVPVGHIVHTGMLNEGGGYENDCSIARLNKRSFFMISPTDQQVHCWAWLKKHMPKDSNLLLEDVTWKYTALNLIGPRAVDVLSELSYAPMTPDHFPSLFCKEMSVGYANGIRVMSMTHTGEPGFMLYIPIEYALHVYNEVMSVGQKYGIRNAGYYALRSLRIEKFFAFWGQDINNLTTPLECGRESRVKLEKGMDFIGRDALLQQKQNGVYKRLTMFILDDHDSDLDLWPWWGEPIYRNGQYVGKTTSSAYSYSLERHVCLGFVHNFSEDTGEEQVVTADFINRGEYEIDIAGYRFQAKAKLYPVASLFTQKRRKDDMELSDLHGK
UniProt Q86SE9: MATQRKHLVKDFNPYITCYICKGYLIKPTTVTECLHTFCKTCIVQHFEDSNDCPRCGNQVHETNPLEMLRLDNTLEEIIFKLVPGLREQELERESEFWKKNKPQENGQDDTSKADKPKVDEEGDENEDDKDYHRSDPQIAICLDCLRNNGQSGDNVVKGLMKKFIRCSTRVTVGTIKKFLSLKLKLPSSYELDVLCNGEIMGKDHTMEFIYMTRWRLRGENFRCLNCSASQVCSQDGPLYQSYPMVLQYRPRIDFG
UniProt P49585: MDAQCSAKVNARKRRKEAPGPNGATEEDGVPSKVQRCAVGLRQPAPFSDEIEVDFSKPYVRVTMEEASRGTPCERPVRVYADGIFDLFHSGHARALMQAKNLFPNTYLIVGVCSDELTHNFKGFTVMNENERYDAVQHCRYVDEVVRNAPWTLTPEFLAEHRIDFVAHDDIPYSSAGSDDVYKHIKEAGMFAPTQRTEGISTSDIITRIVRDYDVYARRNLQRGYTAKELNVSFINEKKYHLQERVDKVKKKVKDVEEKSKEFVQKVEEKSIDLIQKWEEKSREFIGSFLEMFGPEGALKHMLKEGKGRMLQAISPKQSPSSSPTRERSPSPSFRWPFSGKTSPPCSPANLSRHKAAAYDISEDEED
UniProt Q9UBM1: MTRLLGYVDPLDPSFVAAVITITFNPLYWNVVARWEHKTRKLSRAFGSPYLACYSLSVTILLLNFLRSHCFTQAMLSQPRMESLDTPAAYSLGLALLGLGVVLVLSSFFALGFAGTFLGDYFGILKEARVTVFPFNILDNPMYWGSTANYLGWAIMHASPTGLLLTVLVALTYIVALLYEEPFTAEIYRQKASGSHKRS
UniProt Q15118, whole entry, looked up: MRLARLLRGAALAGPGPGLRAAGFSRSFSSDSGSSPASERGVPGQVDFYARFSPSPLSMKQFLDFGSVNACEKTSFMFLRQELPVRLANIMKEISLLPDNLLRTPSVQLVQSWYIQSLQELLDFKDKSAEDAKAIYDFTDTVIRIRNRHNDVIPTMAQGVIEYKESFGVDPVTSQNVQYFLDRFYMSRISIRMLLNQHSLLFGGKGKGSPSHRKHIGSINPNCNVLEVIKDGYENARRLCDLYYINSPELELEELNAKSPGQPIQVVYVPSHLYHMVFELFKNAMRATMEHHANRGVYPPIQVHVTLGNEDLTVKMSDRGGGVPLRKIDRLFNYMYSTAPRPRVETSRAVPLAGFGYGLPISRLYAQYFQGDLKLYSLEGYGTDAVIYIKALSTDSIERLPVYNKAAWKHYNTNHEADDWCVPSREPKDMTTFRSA
UniProt O96011: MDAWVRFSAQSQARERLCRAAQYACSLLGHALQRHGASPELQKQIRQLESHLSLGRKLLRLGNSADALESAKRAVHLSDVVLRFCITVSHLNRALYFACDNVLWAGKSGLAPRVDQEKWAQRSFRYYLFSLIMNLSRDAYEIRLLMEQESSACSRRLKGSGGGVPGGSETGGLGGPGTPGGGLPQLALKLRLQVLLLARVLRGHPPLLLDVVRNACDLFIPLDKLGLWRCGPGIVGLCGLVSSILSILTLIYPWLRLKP
UniProt O00151: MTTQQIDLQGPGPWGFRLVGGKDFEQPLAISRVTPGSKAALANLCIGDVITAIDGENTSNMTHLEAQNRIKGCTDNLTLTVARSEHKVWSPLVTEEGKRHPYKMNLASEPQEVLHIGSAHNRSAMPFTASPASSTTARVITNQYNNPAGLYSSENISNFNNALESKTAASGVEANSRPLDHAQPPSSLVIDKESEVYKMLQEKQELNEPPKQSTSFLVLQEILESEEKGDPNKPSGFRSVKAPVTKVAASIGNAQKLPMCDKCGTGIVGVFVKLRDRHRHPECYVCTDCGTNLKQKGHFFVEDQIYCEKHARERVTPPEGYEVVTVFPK
UniProt Q9UKL6: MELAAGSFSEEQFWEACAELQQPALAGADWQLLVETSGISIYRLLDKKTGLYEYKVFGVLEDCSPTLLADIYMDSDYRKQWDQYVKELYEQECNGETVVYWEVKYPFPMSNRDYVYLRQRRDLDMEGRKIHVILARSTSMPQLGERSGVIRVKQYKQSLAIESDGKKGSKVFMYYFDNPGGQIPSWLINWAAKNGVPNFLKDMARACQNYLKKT

How the values were obtained:
Experiment in all cases: log2 fold change, soluble protein after heating vs DMSO (PISA); higher = thermal stabilisation; K562 lysate, 10 uM; active = over 0.2 and 3.5 SD of the protein, either way, in both replicates (recomputed)
vemurafenib = compound: CCCS(=O)(=O)Nc1ccc(F)c(C(=O)c2c[nH]c3ncc(-c4ccc(Cl)cc4)cc23)c1F [vemurafenib]
Procedure, shortened: (§1)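 A 30 min treatment with 10 μM compound was applied to crude K562 extract at 1 mg/mL protein in PBS pH 7.4 with 1 mM MgCl2. Heating for 3 min spanned 48°C-58°C, after which aliquots were pooled, adjusted to 0.5% NP-40 at 4°C and spun at 21,000xg for 90 min. TMTpro 16plex LC-MS/MS of the supernatant, with channel sums equalised, gave values recorded as log-two fold change in thermal stability against solvent controls, from duplicates.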

[1] = compound: CCCS(=O)(=O)Nc1ccc(F)c(C(=O)c2c[nH]c3ncc(Cl)cc23)c1F
Procedure, shortened: as §1

barasertib = compound: CCN(CCCOc1ccc2c(Nc3cc(CC(=O)Nc4cccc(F)c4)[nH]n3)ncnc2c1)CCOP(=O)(O)O [barasertib]
Procedure, shortened: as §1

[2] = compound: CC[C@@H]1C(=O)N(C)c2cnc(Nc3ccc(C(=O)NC4CCN(C)CC4)cc3OC)nc2N1C1CCCC1
Procedure, shortened: as §1

volasertib = compound: CC[C@@H]1C(=O)N(C)c2cnc(Nc3ccc(C(=O)N[C@H]4CC[C@H](N5CCN(CC6CC6)CC5)CC4)cc3OC)nc2N1C(C)C [volasertib]
Procedure, shortened: as §1

[3] = compound: CCn1c(C(=O)N(C2CC2)C2CC2)cc2c3c(ncn3C)c(Nc3cc(C)n(C)n3)nc21
Procedure, shortened: as §1

[4] = compound: CCn1cc(-c2ccnc3[nH]c(-c4cccc(CN(C)C)c4)cc23)c(-c2ccc(NC(=O)N(C)C)cc2)n1
Procedure, shortened: as §1

[5] = compound: CN1CCC(CNc2ccc3ncc(-c4cccc(OC(F)(F)F)c4)n3n2)CC1
Procedure, shortened: as §1

saracatinib = compound: CN1CCN(CCOc2cc(OC3CCOCC3)c3c(Nc4c(Cl)ccc5c4OCO5)ncnc3c2)CC1 [saracatinib]
Procedure, shortened: as §1

sotrastaurin = compound: CN1CCN(c2nc(C3=C(c4c[nH]c5ccccc45)C(=O)NC3=O)c3ccccc3n2)CC1 [sotrastaurin]
Procedure, shortened: as §1

alvocidib = compound: CN1CC[C@H](c2c(O)cc(O)c3c(=O)cc(-c4ccccc4Cl)oc23)[C@H](O)C1 [alvocidib]
Procedure, shortened: as §1

Tubastatin A = compound: CN1CCc2c(c3ccccc3n2Cc2ccc(C(=O)NO)cc2)C1 [Tubastatin A]
Procedure, shortened: as §1

[6] = compound: CNC(=O)C1=CC=CC=C1NC2=NC(=NC=C2Cl)NC3=C(C=C(C=C3)N4CCOCC4)OC
Procedure, shortened: as §1

defactinib = compound: CNC(=O)c1ccc(Nc2ncc(C(F)(F)F)c(NCc3nccnc3N(C)S(C)(=O)=O)n2)cc1 [defactinib]
Procedure, shortened: as §1

[7] = compound: CNc1nc(-c2ccc3c(N)n[nH]c3c2)cc(N2C[C@@H](C(=O)NC3CCCCC3)CC[C@H]2C)n1
Procedure, shortened: as §1

encorafenib = compound: COC(=O)N[C@@H](C)CNc1nccc(-c2cn(C(C)C)nc2-c2cc(Cl)cc(NS(C)(=O)=O)c2F)n1 [encorafenib]
Procedure, shortened: as §1

[8] = compound: COC(=O)[C@H](CCSC)NC(=O)C1=C(C=C(C=C1)NC[C@H](CS)N)C2=CC=CC=C2
Procedure, shortened: as §1

alisertib = compound: COc1cc(Nc2ncc3c(n2)-c2ccc(Cl)cc2C(c2c(F)cccc2OC)=NC3)ccc1C(=O)O [alisertib]
Procedure, shortened: as §1

[9] = compound: COc1cc2nc(-c3cc(F)ccc3O)nc(N[C@@H]3CNC[C@H]3C(C)(C)O)c2cc1OC
Procedure, shortened: as §1

gefitinib = compound: COc1cc2ncnc(Nc3ccc(F)c(Cl)c3)c2cc1OCCCN1CCOCC1 [gefitinib]
Procedure, shortened: as §1

Measured: log2 fold change

PGD (UniProt P52209)
inactive: vemurafenib 0.018 | [1] -0.006 | barasertib -0.018 | [2] -0.022 | volasertib 0.004 | [3] -0.002 | [4] 0.052 | [5] -0.055 | saracatinib 0.003 | sotrastaurin 0.004 | alvocidib 0.034 | Tubastatin A 0.033 | [6] -0.032 | defactinib -0.016 | [7] -0.036 | encorafenib -0.027 | [8] -0.02 | alisertib -0.007 | [9] 0.001 | gefitinib -0.011

PARVB (UniProt Q9HBI1)
inactive: vemurafenib 0.029 | [1] 0.007 | barasertib 0.004 | [2] -0.015 | volasertib -0.079 | [3] 0.008 | [4] -0.021 | [5] 0.007 | saracatinib 0.009 | sotrastaurin 0.051 | alvocidib 0.039 | Tubastatin A -0.04 | [6] -0.015 | defactinib 0.016 | [7] -0.002 | encorafenib 0.019 | [8] 0.046 | alisertib 0.022 | [9] 0.011 | gefitinib 0.083

PEX13 (UniProt Q92968)
inactive: vemurafenib -0.042 | [1] 0.054 | barasertib 0.042 | [2] 0.031 | volasertib 0.052 | [3] 0.036 | [4] -0.019 | [5] -0.041 | saracatinib 0.036 | sotrastaurin 0 | alvocidib 0.037 | Tubastatin A 0.037 | [6] 0.043 | defactinib 0.037 | [7] -0.061 | encorafenib -0.069 | [8] -0.169 | alisertib -0.008 | [9] -0.163 | gefitinib -0.015

PDPR (UniProt Q8NCN5)
inactive: vemurafenib -0.013 | [1] 0.032 | barasertib 0.011 | [2] 0.043 | volasertib -0.023 | [3] -0.014 | [4] -0.068 | [5] 0.002 | saracatinib 0.005 | sotrastaurin -0.007 | alvocidib -0.076 | Tubastatin A 0.034 | [6] -0.055 | defactinib -0.086 | [7] -0.006 | encorafenib -0.02 | [8] -0.057 | alisertib -0.085 | [9] -0.011 | gefitinib -0.002

PCGF5 (UniProt Q86SE9)
inactive: vemurafenib -0.032 | [1] -0.029 | barasertib -0.097 | [2] 0.018 | volasertib 0.051 | [3] -0.032 | saracatinib 0.029 | sotrastaurin 0.075 | Tubastatin A -0.072 | [6] 0.035 | defactinib -0.112 | [7] -0.006 | encorafenib 0.087 | [8] -0.015 | alisertib -0.039 | [9] 0.032 | gefitinib 0.102

PEX5 isoform 4 (UniProt P50542)
inactive: vemurafenib 0.044 | [1] 0.06 | barasertib -0.003 | [2] -0.081 | volasertib 0.066 | [3] 0.037 | [4] 0.055 | [5] -0.048 | saracatinib 0.014 | sotrastaurin 0.024 | alvocidib 0.017 | Tubastatin A -0.012 | [6] -0.05 | defactinib 0.044 | [7] 0.046 | encorafenib 0.025 | [8] 0.022 | alisertib -0.015 | [9] 0.003 | gefitinib -0.008

PCYT1A (UniProt P49585)
inactive: vemurafenib -0.02 | [1] 0.024 | barasertib -0.015 | [2] 0.042 | volasertib 0.004 | [3] -0.001 | [4] 0.05 | [5] 0.006 | saracatinib 0.007 | sotrastaurin 0.005 | alvocidib 0.025 | Tubastatin A 0.02 | [6] 0.021 | defactinib -0.007 | [7] 0.044 | encorafenib 0.015 | [8] -0.058 | alisertib 0.02 | [9] 0.022 | gefitinib -0.01

PEMT isoform 2 (UniProt Q9UBM1)
inactive: vemurafenib 0.214 | [1] 0.032 | volasertib -0.096 | [4] 0.129 | [5] 0.041 | alvocidib 0.14 | defactinib -0.083 | [9] -0.198

PDK1 (UniProt Q15118)
inactive: vemurafenib -0.251 | [1] 0.118 | barasertib -0.083 | [2] -0.227 | volasertib -0.047 | [3] 0.061 | [4] -0.18 | [5] -0.028 | saracatinib 0.001 | sotrastaurin -0.024 | alvocidib 0.062 | Tubastatin A -0.153 | [6] 0.024 | defactinib -0.151 | [7] -0.084 | encorafenib 0.011 | [8] 0.012 | [9] -0.051

PEX11B (UniProt O96011)
inactive: vemurafenib -0.012 | [1] 0.004 | barasertib -0.028 | [2] 0.041 | volasertib -0.014 | [3] -0.015 | [4] 0.169 | [5] -0.014 | saracatinib 0.009 | sotrastaurin -0.013 | alvocidib 0.076 | Tubastatin A 0.088 | [6] 0.033 | defactinib 0.046 | [7] 0.036 | encorafenib 0.012 | [8] -0.026 | alisertib 0.075 | [9] -0.023 | gefitinib 0.018

PDLIM1 (UniProt O00151)
inactive: vemurafenib 0.014 | [1] 0.004 | barasertib -0.04 | [2] 0.085 | volasertib 0.035 | [3] -0.042 | [4] 0.057 | [5] -0.017 | saracatinib -0.009 | sotrastaurin -0.015 | alvocidib -0.009 | Tubastatin A 0.063 | [6] 0.022 | defactinib -0.021 | [7] 0.036 | encorafenib -0.002 | [8] -0.028 | alisertib 0 | [9] -0.017 | gefitinib -0.06

PCTP (UniProt Q9UKL6)
inactive: vemurafenib -0.014 | [1] -0.01 | barasertib 0.024 | [2] -0.002 | volasertib -0.006 | [3] -0.035 | [4] -0.148 | [5] 0.013 | saracatinib -0.009 | sotrastaurin -0.015 | alvocidib -0.009 | Tubastatin A 0.008 | [6] -0.021 | defactinib 0.027 | [7] -0.004 | encorafenib 0.008 | [8] -0.011 | alisertib -0.02 | [9] 0.002 | gefitinib -0.046
